Laboratory results as given in patent US20200016058A1, “HORNY LAYER FUNCTION IMPROVING AGENT” (Ajinomoto Co., Inc., priority 2017, published 2020).
Some compounds share one wording; it may come from a single statement.

Tested on: horny layer of the subjects
Experiment: Correlation between D-amino acid content in the horny layer and horny layer moisture content (Skicon-200EX, cheek)
Assay type: in vivo, women
Settings: absolute value of correlation coefficient; for Moisture retainability Horny layer moisture content, Elderly person (correlation with D-amino acid content in horny layer): women in their forties to sixties; for Moisture retainability Horny layer moisture content, Young person (correlation with D-amino acid content in horny layer): women in their twenties to thirties

| SMILES | Moisture retainability Horny layer moisture content, Elderly person (correlation with D-amino acid content in horny layer) | Moisture retainability Horny layer moisture content, Young person (correlation with D-amino acid content in horny layer) |
| --- | --- | --- |
| N=C(N)NCCC[C@@H](N)C(=O)O [D-Arg, D-arginine] | C (cases with that of 0.2 or more were evaluated to be “C” as having “a weak correlation.”) | C (cases with that of 0.2 or more were evaluated to be “C” as having “a weak correlation.”) |
| NC(=O)C[C@@H](N)C(=O)O [D-Asn, D-asparagine] | B (cases with that of 0.3 or more were evaluated to be “B” as having “a medium correlation,”) | A (Cases with an absolute value of a correlation coefficient of 0.4 or more were evaluated to be “A” as having “a strong correlation”) |
| N[C@H](CC(=O)O)C(=O)O [D-Asp, D-aspartic acid] | C (cases with that of 0.2 or more were evaluated to be “C” as having “a weak correlation.”) | A (Cases with an absolute value of a correlation coefficient of 0.4 or more were evaluated to be “A” as having “a strong correlation”) |
| NC(=O)CC[C@@H](N)C(=O)O [D-Gln, D-glutamine] | C (cases with that of 0.2 or more were evaluated to be “C” as having “a weak correlation.”) | – |
| N[C@H](Cc1c[nH]cn1)C(=O)O [D-His, D-histidine] | C (cases with that of 0.2 or more were evaluated to be “C” as having “a weak correlation.”) | B (cases with that of 0.3 or more were evaluated to be “B” as having “a medium correlation,”) |
| CC(C)C[C@@H](N)C(=O)O [D-Leu, D-leucine] | C (cases with that of 0.2 or more were evaluated to be “C” as having “a weak correlation.”) | A (Cases with an absolute value of a correlation coefficient of 0.4 or more were evaluated to be “A” as having “a strong correlation”) |
| NCCCC[C@@H](N)C(=O)O [D-Lys, D-lysine] | C (cases with that of 0.2 or more were evaluated to be “C” as having “a weak correlation.”) | B (cases with that of 0.3 or more were evaluated to be “B” as having “a medium correlation,”) |
| N[C@H](Cc1ccccc1)C(=O)O [D-Phe, D-phenylalanine] | – | A (Cases with an absolute value of a correlation coefficient of 0.4 or more were evaluated to be “A” as having “a strong correlation”) |
| O=C(O)[C@H]1CCCN1 [D-Pro, D-proline] | B (cases with that of 0.3 or more were evaluated to be “B” as having “a medium correlation,”) | A (Cases with an absolute value of a correlation coefficient of 0.4 or more were evaluated to be “A” as having “a strong correlation”) |
| N[C@H](CO)C(=O)O [D-Ser, D-serine] | – | A (Cases with an absolute value of a correlation coefficient of 0.4 or more were evaluated to be “A” as having “a strong correlation”) |
| N[C@H](Cc1c[nH]c2ccccc12)C(=O)O [D-Trp, D-tryptophan] | C (cases with that of 0.2 or more were evaluated to be “C” as having “a weak correlation.”) | C (cases with that of 0.2 or more were evaluated to be “C” as having “a weak correlation.”) |
| N[C@H](Cc1ccc(O)cc1)C(=O)O [D-Tyr, D-tyrosine] | – | C (cases with that of 0.2 or more were evaluated to be “C” as having “a weak correlation.”) |
| CC(C)[C@@H](N)C(=O)O [D-Val, D-valine] | A (Cases with an absolute value of a correlation coefficient of 0.4 or more were evaluated to be “A” as having “a strong correlation”) | A (Cases with an absolute value of a correlation coefficient of 0.4 or more were evaluated to be “A” as having “a strong correlation”) |
| CC[C@H](C)[C@@H](N)C(=O)O [D-allo-Ile, D-allo-isoleucine] | A (Cases with an absolute value of a correlation coefficient of 0.4 or more were evaluated to be “A” as having “a strong correlation”) | A (Cases with an absolute value of a correlation coefficient of 0.4 or more were evaluated to be “A” as having “a strong correlation”) |
| C[C@@H](O)[C@@H](N)C(=O)O [D-allo-Thr, D-allo-threonine] | B (cases with that of 0.3 or more were evaluated to be “B” as having “a medium correlation,”) | A (Cases with an absolute value of a correlation coefficient of 0.4 or more were evaluated to be “A” as having “a strong correlation”) |
